The target in this assay is tripartite motif containing 9 (TRIM9) (human (endogenous in MDA-MB-231 and Hs578T)) (UniProt Q9C026). The experiment in a line: co-IP; reciprocal co-IP of endogenous proteins from MDA-MB-231 and Hs578T lysates (RIPA buffer with protease inhibitor); 3 ug antibody overnight at 4 C; protein A/G PLUS-agarose; western blot.

The chains behind the UniProt entries cited, without tags or fusion partners.
UniProt Q9C026: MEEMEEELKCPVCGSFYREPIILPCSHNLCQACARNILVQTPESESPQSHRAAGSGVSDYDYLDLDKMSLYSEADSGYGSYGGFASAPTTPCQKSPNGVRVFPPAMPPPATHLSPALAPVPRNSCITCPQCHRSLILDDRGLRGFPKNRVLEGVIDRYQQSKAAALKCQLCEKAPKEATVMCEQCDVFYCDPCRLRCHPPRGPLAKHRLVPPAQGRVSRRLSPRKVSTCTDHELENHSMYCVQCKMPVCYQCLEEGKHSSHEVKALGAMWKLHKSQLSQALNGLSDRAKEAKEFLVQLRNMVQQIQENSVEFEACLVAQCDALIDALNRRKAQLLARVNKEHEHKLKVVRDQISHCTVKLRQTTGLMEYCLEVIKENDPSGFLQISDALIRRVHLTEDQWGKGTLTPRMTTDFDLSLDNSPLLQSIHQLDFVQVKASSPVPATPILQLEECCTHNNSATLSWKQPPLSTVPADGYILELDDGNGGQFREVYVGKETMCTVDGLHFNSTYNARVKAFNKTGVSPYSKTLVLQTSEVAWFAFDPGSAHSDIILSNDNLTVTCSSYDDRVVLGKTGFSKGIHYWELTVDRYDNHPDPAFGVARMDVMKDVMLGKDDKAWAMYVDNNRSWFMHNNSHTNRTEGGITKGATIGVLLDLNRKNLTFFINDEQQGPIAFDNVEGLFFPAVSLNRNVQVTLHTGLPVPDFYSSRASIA
UniProt P14618: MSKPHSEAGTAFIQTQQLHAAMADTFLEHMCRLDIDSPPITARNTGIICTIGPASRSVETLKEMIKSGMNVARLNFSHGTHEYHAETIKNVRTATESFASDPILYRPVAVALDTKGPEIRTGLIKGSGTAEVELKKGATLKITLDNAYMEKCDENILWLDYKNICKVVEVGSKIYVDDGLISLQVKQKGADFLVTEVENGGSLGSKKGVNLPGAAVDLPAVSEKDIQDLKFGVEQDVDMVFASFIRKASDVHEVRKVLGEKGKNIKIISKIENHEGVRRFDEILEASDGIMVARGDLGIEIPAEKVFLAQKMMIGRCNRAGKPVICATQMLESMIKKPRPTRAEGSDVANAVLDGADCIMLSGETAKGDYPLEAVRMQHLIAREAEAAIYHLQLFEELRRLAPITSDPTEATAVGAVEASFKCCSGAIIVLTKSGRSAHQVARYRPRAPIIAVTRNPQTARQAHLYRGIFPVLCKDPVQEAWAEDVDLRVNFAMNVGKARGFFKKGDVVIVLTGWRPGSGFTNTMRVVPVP

These are yes or no findings as the source states them, for the method shown. In cells and extracts the contact can be indirect. Some entries that bind do so weakly or less than the wild type.

Take “pyruvate kinase isoform M2 (PKM2) (from UniProt P14618 1-531) (enzyme)”: the binding result is “binds”.

(Values after publication PMC10844685.)
